Publication PMC11286746

target: T1, HA-tagged wild-type BCAT1 (branched-chain amino acid transaminase 1) (UniProt P54687); test: co-IP; U251 cells transfected with HA-BCAT1 and Flag-tagged CHIP (wild type or truncated mutants); NP-40 lysis buffer, 1 ug antibody and protein A/G agarose beads, 4 °C, 8 h; western blot
T1 sequence: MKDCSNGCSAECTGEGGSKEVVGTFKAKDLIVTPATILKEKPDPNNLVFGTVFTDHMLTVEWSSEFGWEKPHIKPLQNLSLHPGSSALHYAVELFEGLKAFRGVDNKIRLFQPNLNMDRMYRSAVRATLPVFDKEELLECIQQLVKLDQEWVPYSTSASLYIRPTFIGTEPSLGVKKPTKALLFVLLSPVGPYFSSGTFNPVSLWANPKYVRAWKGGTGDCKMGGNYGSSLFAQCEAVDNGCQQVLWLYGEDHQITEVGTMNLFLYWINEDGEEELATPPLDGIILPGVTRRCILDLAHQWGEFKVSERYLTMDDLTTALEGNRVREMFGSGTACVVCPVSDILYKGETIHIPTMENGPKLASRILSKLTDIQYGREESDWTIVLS

| binding | Substance |
| --- | --- |
| no binding | Flag-tagged CHIP mutant lacking the CC (coiled-coil) domain (domain or fragment) |
| binds | Flag-tagged CHIP mutant lacking the TPR domain (domain or fragment) |
| binds | Flag-tagged CHIP mutant lacking the U-box domain (domain or fragment) |

Results are given in words; binding and its absence hold for the method and conditions named. In cells and extracts the contact can be indirect. Binding can be weak; no strength is given. Tags and fused reporters may be left off the sequences shown.
